EP0461696 (dated 1993)

Test: peptide synthesis
Details: purification step, acid addition salt

H-[Met(O2)]EHF[dK]F-OH
final HPLC purity (HPLC (HP1090M), peak area percent): 99.3%
step yield (crystallisation yield): 40 to 50%

[ ]: non-standard residue; d: D form. Met(O2) = CS(=O)(=O)CC[C@H](N)C(=O)O
